These are yes or no findings as the source states them, for the method shown. In cells and extracts the contact can be indirect. Some results given as binding are weak or reduced against the parent protein; the word gives no strength.
How the values were obtained:
[1] = biological target: T1, HSF4 (mouse (endogenous in NIH-3T3)) (UniProt Q9R0L1); test: co-IP; NIH-3T3 cells after UV induction; protein A/G beads with specific antibody or IgG, incubated with cell lysate overnight; Western blot
T1 sequence: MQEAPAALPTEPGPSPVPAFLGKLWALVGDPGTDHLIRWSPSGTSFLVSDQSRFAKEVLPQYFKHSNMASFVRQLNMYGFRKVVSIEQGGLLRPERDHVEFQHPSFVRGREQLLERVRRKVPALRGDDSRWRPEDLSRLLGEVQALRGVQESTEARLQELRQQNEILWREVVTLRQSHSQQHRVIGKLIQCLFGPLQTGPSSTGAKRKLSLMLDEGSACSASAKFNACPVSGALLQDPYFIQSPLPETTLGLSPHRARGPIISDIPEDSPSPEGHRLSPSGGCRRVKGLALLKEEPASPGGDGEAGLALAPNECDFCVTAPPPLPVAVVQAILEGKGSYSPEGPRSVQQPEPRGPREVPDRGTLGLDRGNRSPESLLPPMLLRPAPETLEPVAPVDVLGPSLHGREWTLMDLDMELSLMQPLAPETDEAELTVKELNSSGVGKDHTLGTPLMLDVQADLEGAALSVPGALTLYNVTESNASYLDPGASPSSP

Amino acid sequences for entries named in this document (tags omitted).
UniProt Q5SU73: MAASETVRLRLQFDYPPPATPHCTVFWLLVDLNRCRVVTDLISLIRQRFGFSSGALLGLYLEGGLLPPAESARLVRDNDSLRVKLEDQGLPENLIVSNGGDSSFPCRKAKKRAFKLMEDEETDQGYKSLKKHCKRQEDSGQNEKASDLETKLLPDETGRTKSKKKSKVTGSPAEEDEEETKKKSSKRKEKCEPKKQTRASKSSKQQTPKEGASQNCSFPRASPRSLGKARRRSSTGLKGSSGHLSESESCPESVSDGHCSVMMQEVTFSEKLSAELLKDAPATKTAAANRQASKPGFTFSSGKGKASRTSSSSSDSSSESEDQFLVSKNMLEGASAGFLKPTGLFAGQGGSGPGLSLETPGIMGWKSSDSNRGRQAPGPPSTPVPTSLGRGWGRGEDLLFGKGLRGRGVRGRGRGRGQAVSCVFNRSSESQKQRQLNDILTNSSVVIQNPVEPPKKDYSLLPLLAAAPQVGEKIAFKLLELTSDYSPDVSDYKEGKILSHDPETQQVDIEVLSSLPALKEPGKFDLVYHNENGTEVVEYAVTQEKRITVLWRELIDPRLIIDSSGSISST

[2] = biological target: T1, HSF4 (mouse (endogenous in NIH-3T3)); test: co-IP; NIH-3T3 cells under normal conditions (without UV); protein A/G beads with specific antibody or IgG, incubated with cell lysate overnight; Western blot
[3] = biological target: T1, HSF4 (mouse (endogenous in NIH-3T3)); test: proximity ligation; Duolink in situ PLA in fixed, permeabilised NIH-3T3 cells before and after UV induction; signal when the two proteins are ≤40 nm apart

binding [1]: binds
binding [3]: binds
Substance: COIL (coilin) (from UniProt Q5SU73 1-570)
binding [2]: no binding (condition: cells without UV irradiation)
